Data as given in PubChem BioAssay AID504834 (National Center for Advancing Translational Sciences (NCATS), 2011).
The whole screen tested about 320,000 compounds, of which about 22,000 (6.9%) were called active. The inconclusive results got no clear call from the source; some entries with a clear call stand among them for comparison. The call rests on the fitted dose curve; in most records, active means well fitted inhibition curve with a large enough effect; inconclusive means small, poorly fitted or top-dose-only effect, or another doubt; inactive means no such curve, though single readings can be large or run the other way. Where the call is inconclusive, the potency comes from a doubtful curve fit.

Experiment: Primary qHTS for delayed death inhibitors of the malarial parasite plastid, 96 hour incubation
Details: P. falciparum luciferase reporter growth; series mostly up to 28.7 µM
Procedure, shortened: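 Plates of compound plus infected erythrocytes (2% hematocrit, 0.05% parasitemia final) incubate 96 hours, 37 C, 5% CO2. Detection reagent added; reduced luminescence from the parasites' luciferase reporter flags inhibition.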
On the % scale 0 is the no-effect control and ±100 the full control effect; potency means the concentration at half of the fitted maximal effect.

Compound	Potency	activity change, negative = inhibition
Cc1ccc(-n2nnnc2-c2ccco2)cc1	inconclusive: 2.08 µM [inhibitor, partial curve, poor fit]	
N#CCc1ccc(OC(=O)c2cccnc2)cc1	inconclusive: 10.4 µM [inhibitor, partial curve]	
COC(=O)c1ccc(N/N=C/c2cc([N+](=O)[O-])cc(OC)c2O)cc1	inactive	
CCN1C(=O)[C@@H]2[C@@H](c3ccc(-c4ccc(C(C)=O)cc4)cc3)N3CCCC[C@@]3(C(=O)OC)[C@@H]2C1=O	active: 11.7 µM	
O=C(/C=C/c1ccco1)Nc1ccc(-c2nc3ccccc3[nH]2)cc1	active: 11.7 µM	
COCCNC(=S)N/N=C(\C)c1cccc(OC)c1	inconclusive: 18.5 µM [inhibitor, single point]	
COc1cc2c(cc1NC(=O)c1ccc(C(C)(C)C)cc1)CCCC2	inconclusive: 0.0828 µM [inhibitor, full curve, poor fit]	
O=C(NNc1nc2c(F)cccc2s1)c1cc(=O)c2ccccc2o1	inactive	
CCOC(=O)c1cc2sc(C)cc2n1CC(=O)NCCc1ccccc1	inconclusive: 0.329 µM [inhibitor, partial curve, poor fit]	
CCc1nnc(NC(=O)CCC(=O)N2CCN(c3cc(Cl)ccc3C)CC2)s1	inconclusive: 18.5 µM [inhibitor, single point]	
Cc1ccc(CN(C)C(=O)c2ccccc2Sc2ccccc2C#N)cc1	inconclusive: 7.38 µM [inhibitor, partial curve, poor fit]	
COc1ccc(C(=O)Nc2ccccc2C(=O)NCCCn2ccnc2)cc1	inconclusive: 14.7 µM [inhibitor, single point]	
COCCNC(=S)NNC(=O)c1ccc(-n2cnnn2)cc1	inactive	
CN1CCN(C2=Cc3ccccc3Sc3cc(F)c(Cl)cc32)CC1	inconclusive: 8.28 µM [inhibitor, partial curve, poor fit]	
COc1ccc(OC)c(C2C(C(=O)c3ccc(C)o3)=C(O)C(=O)N2c2cc(C)on2)c1 (stereo not given)	inconclusive: 18.5 µM [inhibitor, single point]	
CC(=O)NC1=NC(=O)/C(=C/c2cc(C)n(-c3cccc(C(=O)O)c3)c2C)S1	inconclusive: 18.5 µM [inhibitor, single point]	
Cc1ccc2[nH]c(O)c(N=O)c2c1	inactive	
CCN(CC)S(=O)(=O)c1cccc(-n2c(O)c(C=Nc3ccccc3C(=O)O)c3ccccc3c2=O)c1	active: 7.38 µM	
Cn1c2ccccc2c(=O)c2c(=O)n(Cc3ccco3)c(COc3ccccc3)nc21	active: 7.38 µM	
O=C(CC1C(=O)NCCN1Cc1ccc(-c2ccccc2)cc1)NCc1ccncc1 (stereo not given)	inconclusive: 1.65 µM [inhibitor, partial curve, poor fit]	
COCCCN1C(=O)C(=O)/C(=C(/O)c2ccc(S(=O)(=O)N3CCOCC3)cc2)C1c1ccc(F)cc1 (stereo not given)	inactive	
CCN1CCN(c2ccccc2NC(=O)C(C)Oc2ccc(C(C)=O)cc2)CC1 (stereo not given)	inconclusive: 11.7 µM [inhibitor, single point]	
Cc1cccc(Nc2c(-c3ccc(N4CCOCC4)cc3)nc3ncccn23)c1	inconclusive: 13.1 µM [inhibitor, single point]	

Entries of single compounds, quoted from the list.
Cc1ccc(-n2nnnc2-c2ccco2)cc1 in the list: Potency: inconclusive: 2.08 µM [inhibitor, partial curve, poor fit]
Cc1ccc2[nH]c(O)c(N=O)c2c1 in the list: Potency: inactive
COC(=O)c1ccc(N/N=C/c2cc([N+](=O)[O-])cc(OC)c2O)cc1 in the list: Potency: inactive

Further compounds:

Compound	Potency	activity change, negative = inhibition
CCOC(=O)c1c(-c2ccc(C)cc2)csc1NC(=O)/C(C#N)=C/c1ccc(O)c(OC)c1	inconclusive: 18.5 µM [inhibitor, single point]	
COc1cc(C)ccc1OCC(=O)Nc1ccccc1N1CCOCC1	inconclusive: 5.22 µM [inhibitor, partial curve, poor fit]	
COc1ccc(S(=O)(=O)N2CCCCC2)cc1NC(=O)CCCNC(=O)c1ccc(Cl)cc1	inconclusive: 9.28 µM [inhibitor, single point]	
COc1cccc(N/C=C/c2onc(C)c2[N+](=O)[O-])c1		inactive: 24.1% [at 1.15 µM]
COc1ccccc1/C=C/C(=O)NCC(=O)N/N=C(\CCC(=O)O)c1ccccc1	inconclusive: 0.262 µM [inhibitor, full curve, poor fit]	
CSc1cccc(CN2CCCC(CNC(=O)c3ccco3)C2)c1 (stereo not given)	inconclusive: 9.28 µM [inhibitor, partial curve, poor fit]	
CCn1ncc(C2=NOC(C(=O)Nc3cccnc3)C2)c1C (stereo not given)	inactive	
COc1ccc(CNc2nc(NC(C)=O)nn2-c2ccccc2)cc1	inconclusive: 10.4 µM [inhibitor, partial curve, poor fit]	
O=c1c2ccccc2nc(/C=C/c2ccccc2)n1CCc1ccccc1	active: 4.65 µM	
O=C(CSc1nnnn1C1CCCC1)Nc1ccccc1F	inactive	
O=C(CN1CCN(Cc2ccc(Cl)cc2)CC1)N/N=C/c1c[nH]c2ccccc12	inconclusive: 18.5 µM [inhibitor, single point]	
CN1CCN(C(=O)CCC(=O)NCc2ccc(F)cc2)CC1	inactive	
CCN1CCN(C(=O)c2cc3c(=O)n4ccccc4nc3s2)CC1	inconclusive: 2.33 µM [inhibitor, full curve]	
O/N=C/c1ccc2cccc(O)c2n1	inconclusive: 11.7 µM [inhibitor, single point]	
O=C(Cc1ccccc1)Nc1ccc2c(c1)CCC2	inactive	
C/C(=N\NC(=O)c1cccc(S(=O)(=O)N2CCOCC2)c1)c1ccc(C)cc1	inconclusive: 7.38 µM [inhibitor, partial curve, poor fit]	
COc1ccc(CN(C)CC(=O)NC(=O)Nc2ccccc2F)cc1	inactive	
C=CCOC(=O)/C=C/C(=O)NC(N)=O	inactive	
O=C(c1ccc(Cn2c(=S)[nH]c3ccc(Br)cc3c2=O)cc1)N1CCN(C2CCCCC2)CC1	inconclusive: 13.1 µM [inhibitor, partial curve, poor fit]	
Cc1cc(C)c(OCC(=O)Nc2nnc(C3CC3)s2)c(C)c1	inactive	
CCCn1c(N)c(C(c2ccc(C(=O)OC)cc2)N2CCN(c3ccccc3)CC2)c(=O)[nH]c1=O (stereo not given)	inactive	
CC1=C([N+](=O)[O-])C(c2ccc(Cl)cc2)NC(=O)N1 (stereo not given)	inconclusive: 9.28 µM [inhibitor, single point]	
